Reference: patent US20150057229A1
These are yes or no findings as the source states them, for the method shown. Some binding calls cover weakened binding; strength is not graded here.

Chains of the proteins cited; added tags and fusions are not shown. Lines headed by an entry give the natural chain unless they say otherwise; changes in a name come on top.
UniProt P98066: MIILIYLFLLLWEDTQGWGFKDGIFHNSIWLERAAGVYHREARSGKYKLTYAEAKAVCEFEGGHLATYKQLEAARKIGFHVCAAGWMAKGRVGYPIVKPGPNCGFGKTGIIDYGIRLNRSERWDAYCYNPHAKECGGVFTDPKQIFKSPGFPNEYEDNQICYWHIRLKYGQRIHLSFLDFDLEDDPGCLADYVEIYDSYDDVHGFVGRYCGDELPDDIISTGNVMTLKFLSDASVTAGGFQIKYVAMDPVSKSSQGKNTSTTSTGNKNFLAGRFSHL

molecular target: T1, sRANKL (soluble receptor activator of NFKB ligand) (UniProt O14788); assay: plate-binding assay: TSG-6 protein coated on microtitre plates, sRANKL 5 pmol/well, detected with a RANKL-specific antibody
T1 sequence (looked up): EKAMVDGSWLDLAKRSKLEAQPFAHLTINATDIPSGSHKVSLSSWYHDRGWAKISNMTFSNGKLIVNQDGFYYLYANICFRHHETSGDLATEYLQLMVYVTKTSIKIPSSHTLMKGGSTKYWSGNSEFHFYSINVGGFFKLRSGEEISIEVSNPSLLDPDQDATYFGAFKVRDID

binding, binds:
CUB_C_TSG6, isolated CUB_C domain of human TSG-6 (expressed in E. coli) (from UniProt P98066 129-277)
Link_TSG6, isolated Link module domain of human TSG-6 (expressed in E. coli) (from UniProt P98066 36-133)
Q144 allotype of the full-length human TSG-6 protein (recombinant, expressed in Drosophila S2 cells) (from UniProt P98066 18-277)
